Results published in EP1897937A1, “Method of culturing NPCs” (NeuroProgen GmbH Leipzig, priority 2006, dated 2008).
Some of these results come from one statement about several compounds together.

System: ligand-gated P2X-channels
Test: Patch-clamp of ligand-gated P2X-channels, rapid nucleotide application
Assay type: cell-based, human
Conditions: rapid application of 300 µM; whole-cell voltage-clamp

| Compound | inward currents |
| --- | --- |
| O=c1ccn([C@@H]2O[C@H](COP(=O)(O)OP(=O)(O)OP(=O)(O)O)[C@@H](O)[C@H]2O)c(=O)[nH]1 [UTP, uridine 5'-triphosphate] | did not induce any detectable inward currents |
| Nc1ncnc2c1ncn2[C@@H]1O[C@H](COP(=O)(O)OP(=O)(O)O)[C@@H](O)[C@H]1O [ADP, adenosine diphosphate] | did not induce any detectable inward currents |
